According to patent publication US20220323521A1, “Compositions and Uses for Engineered Therapeutic Microbes and Associated Receptors” (The Brigham and Women`s Hospital, Inc., priority 2019, published 2022):

System: human P2Y2 receptor
Assay: Expression of C-terminal GFP tagged human P2Y2 receptor mutants in yeast (flow cytometry, microscopy)
Type: cell-based
Settings: C-terminal GFP tag, versus WT P2Y2

H7-1: human P2Y2 receptor mutant K240N F307S [Mutant H7-1]
Human P2Y2 receptor expression in yeast: expression levels similar to those of WT P2Y2 receptor

TM-2: human P2Y2 receptor mutant L59I C119S
Human P2Y2 receptor expression in yeast: increased

TM-3: human P2Y2 receptor mutant N116S
Human P2Y2 receptor expression in yeast: expression levels similar to those of WT P2Y2 receptor

B1: H7-2: human P2Y2 receptor mutant A76T A229V F307S (protein, UniProt P41231 1-377, looked up, variant A76T A229V F307S)
P2Y purinoceptor 2: MAADLGPWNDTINGTWDGDELGYRCRFNEDFKYVLLPVSYGVVCVPGLCLNAVALYIFLCRLKTWNASTTYMFHLTVSDALYAASLPLLVYYYARGDHWPFSTVLCKLVRFLFYTNLYCSILFLTCISVHRCLGVLRPLRSLRWGRARYARRVAGAVWVLVLACQAPVLYFVTTSARGGRVTCHDTSAPELFSRFVAYSSVMLGLLFAVPFAVILVCYVLMARRLLKPVYGTSGGLPRAKRKSVRTIAVVLAVFALCFLPFHVTRTLYYSFRSLDLSCHTLNAINMAYKVTRPLASANSCLDPVLYSLAGQRLVRFARDAKPPTGPSPATPARRRLGLRRSDRTDMQRIEDVLGSSEDSRRTESTPAGSENTKDIRL
Human P2Y2 receptor expression in yeast: expression levels similar to those of WT P2Y2 receptor
